Source: article PMC5582827
Results are given in words; binding and its absence hold for the method and conditions named. Binding seen in cells or lysates may run through a third protein. Some binding calls cover weakened binding; strength is not graded here. Tags and fused reporters may be left off the sequences shown.

Amino acid sequences for entries named in this document (tags omitted).
UniProt Q9UM11: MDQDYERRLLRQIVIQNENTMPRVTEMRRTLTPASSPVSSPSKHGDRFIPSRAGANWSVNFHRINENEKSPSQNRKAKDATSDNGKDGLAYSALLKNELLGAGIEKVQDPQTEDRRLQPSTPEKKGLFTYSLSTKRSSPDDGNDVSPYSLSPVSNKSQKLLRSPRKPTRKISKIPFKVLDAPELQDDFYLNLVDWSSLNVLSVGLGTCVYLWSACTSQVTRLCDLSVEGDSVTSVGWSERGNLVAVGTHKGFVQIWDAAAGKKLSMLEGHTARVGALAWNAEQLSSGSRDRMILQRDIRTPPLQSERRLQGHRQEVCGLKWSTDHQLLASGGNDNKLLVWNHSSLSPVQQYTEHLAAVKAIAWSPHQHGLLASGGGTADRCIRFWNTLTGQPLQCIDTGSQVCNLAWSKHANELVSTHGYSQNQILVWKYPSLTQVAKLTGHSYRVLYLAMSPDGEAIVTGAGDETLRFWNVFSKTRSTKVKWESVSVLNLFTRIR

Experiments:
[1] = molecular target: Myc-CDH1 (UniProt Q9UM11); test: co-IP; HeLa cells transfected with FLAG-RNF157 (or mutant) and Myc-CDH1 or Myc-CDK2; lysate in Cell Extraction Buffer, immunoprecipitation with Myc antibody, blot with FLAG antibody; unsynchronized, nocodazole (G2/M) or double thymidine (G1/S) arrested cells, and cells treated with PI3K/MEK inhibitors or CDK2 inhibitor (2.1 and 4.2 μM, 8 h)
[2] = molecular target: Myc-CDH1 (UniProt Q9UM11); test: co-IP; interaction of RNF157 D-box mutants with CDH1, supplemental Fig. S4D; cells and set-up not shown

B1: FLAG-RNF157 full length (RING finger protein 157), wild type (protein, UniProt Q96PX1 1-679)
chain: MGALTSRQHAGVEEVDIPSNSVYRYPPKSGSYFASHFIMGGEKFDSTHPEGYLFGENSDLNFLGNRPVVFPYAAPPPQEPVKTLRSLVNIRKDTLRLVKCAEEVKSPGEEASKAKVHYNVEFTFDTDARVAITIYYQATEEFQNGIASYIPKDNSLQSETVQYKRGVCQQFCLPSHTVDPSEWAEEELGFDLDREVYPLVVHAVVDEGDEYFGHCHVLLGTFEKHTDGTFCVKPLKQKQVVDGVSYLLQEIYGIENKYNTQDSKVAEDEVSDNSAECVVCLSDVRDTLILPCRHLCLCNTCADTLRYQANNCPICRLPFRALLQIRAMRKKLGPLSPTSFNPIISSQTSDSEEHPSSENIPPGYEVVSLLEALNGPLTPSPAVPPLHVLGDGHLSGMLPSYGSDGHLPPVRTISPLDRLSDSSSQGLKLKKSLSKSTSQNSSVLHEEEDEHSCSESETQLSQRPSVQHLGEECGVTPESENLTLSSSGAIDQSSCTGTPLSSTISSPEGPASSSLAQSVMSMASSQISTDTVSSMSGSYIAPGTEEEGEALSSPQPASRAPSEEGEGLPAESPDSNFAGLPAGEQDAEGNDVIEEEDGSPTQEGQRTCAFLGMECDNNNDFDIASVKALDNKLCSEVCLPGAWQADDNAVSRNAQRRRLSSSSLEDSETRPCVWGPLAV
- binding [1]: binds
- binding [2]: binds

B2: FLAG-RNF157(4SA), serine 660-663-to-alanine mutant (protein, UniProt Q96PX1 1-679)
chain: MGALTSRQHAGVEEVDIPSNSVYRYPPKSGSYFASHFIMGGEKFDSTHPEGYLFGENSDLNFLGNRPVVFPYAAPPPQEPVKTLRSLVNIRKDTLRLVKCAEEVKSPGEEASKAKVHYNVEFTFDTDARVAITIYYQATEEFQNGIASYIPKDNSLQSETVQYKRGVCQQFCLPSHTVDPSEWAEEELGFDLDREVYPLVVHAVVDEGDEYFGHCHVLLGTFEKHTDGTFCVKPLKQKQVVDGVSYLLQEIYGIENKYNTQDSKVAEDEVSDNSAECVVCLSDVRDTLILPCRHLCLCNTCADTLRYQANNCPICRLPFRALLQIRAMRKKLGPLSPTSFNPIISSQTSDSEEHPSSENIPPGYEVVSLLEALNGPLTPSPAVPPLHVLGDGHLSGMLPSYGSDGHLPPVRTISPLDRLSDSSSQGLKLKKSLSKSTSQNSSVLHEEEDEHSCSESETQLSQRPSVQHLGEECGVTPESENLTLSSSGAIDQSSCTGTPLSSTISSPEGPASSSLAQSVMSMASSQISTDTVSSMSGSYIAPGTEEEGEALSSPQPASRAPSEEGEGLPAESPDSNFAGLPAGEQDAEGNDVIEEEDGSPTQEGQRTCAFLGMECDNNNDFDIASVKALDNKLCSEVCLPGAWQADDNAVSRNAQRRRLAAAALEDSETRPCVWGPLAV
- binding [1]: binds

B3: FLAG-tagged phosphodeficient RNF157 mutant (Δ4S), Ser660-663 deleted (protein, UniProt Q96PX1)
chain: MGALTSRQHAGVEEVDIPSNSVYRYPPKSGSYFASHFIMGGEKFDSTHPEGYLFGENSDLNFLGNRPVVFPYAAPPPQEPVKTLRSLVNIRKDTLRLVKCAEEVKSPGEEASKAKVHYNVEFTFDTDARVAITIYYQATEEFQNGIASYIPKDNSLQSETVQYKRGVCQQFCLPSHTVDPSEWAEEELGFDLDREVYPLVVHAVVDEGDEYFGHCHVLLGTFEKHTDGTFCVKPLKQKQVVDGVSYLLQEIYGIENKYNTQDSKVAEDEVSDNSAECVVCLSDVRDTLILPCRHLCLCNTCADTLRYQANNCPICRLPFRALLQIRAMRKKLGPLSPTSFNPIISSQTSDSEEHPSSENIPPGYEVVSLLEALNGPLTPSPAVPPLHVLGDGHLSGMLPSYGSDGHLPPVRTISPLDRLSDSSSQGLKLKKSLSKSTSQNSSVLHEEEDEHSCSESETQLSQRPSVQHLGEECGVTPESENLTLSSSGAIDQSSCTGTPLSSTISSPEGPASSSLAQSVMSMASSQISTDTVSSMSGSYIAPGTEEEGEALSSPQPASRAPSEEGEGLPAESPDSNFAGLPAGEQDAEGNDVIEEEDGSPTQEGQRTCAFLGMECDNNNDFDIASVKALDNKLCSEVCLPGAWQADDNAVSRNAQRRRLLEDSETRPCVWGPLAV
- binding [1]: no binding
